# Primary screen of a compound library

By UniProt entry, the sequences of proteins in these tests, tags left out.
UniProt I6X8D2, whole entry: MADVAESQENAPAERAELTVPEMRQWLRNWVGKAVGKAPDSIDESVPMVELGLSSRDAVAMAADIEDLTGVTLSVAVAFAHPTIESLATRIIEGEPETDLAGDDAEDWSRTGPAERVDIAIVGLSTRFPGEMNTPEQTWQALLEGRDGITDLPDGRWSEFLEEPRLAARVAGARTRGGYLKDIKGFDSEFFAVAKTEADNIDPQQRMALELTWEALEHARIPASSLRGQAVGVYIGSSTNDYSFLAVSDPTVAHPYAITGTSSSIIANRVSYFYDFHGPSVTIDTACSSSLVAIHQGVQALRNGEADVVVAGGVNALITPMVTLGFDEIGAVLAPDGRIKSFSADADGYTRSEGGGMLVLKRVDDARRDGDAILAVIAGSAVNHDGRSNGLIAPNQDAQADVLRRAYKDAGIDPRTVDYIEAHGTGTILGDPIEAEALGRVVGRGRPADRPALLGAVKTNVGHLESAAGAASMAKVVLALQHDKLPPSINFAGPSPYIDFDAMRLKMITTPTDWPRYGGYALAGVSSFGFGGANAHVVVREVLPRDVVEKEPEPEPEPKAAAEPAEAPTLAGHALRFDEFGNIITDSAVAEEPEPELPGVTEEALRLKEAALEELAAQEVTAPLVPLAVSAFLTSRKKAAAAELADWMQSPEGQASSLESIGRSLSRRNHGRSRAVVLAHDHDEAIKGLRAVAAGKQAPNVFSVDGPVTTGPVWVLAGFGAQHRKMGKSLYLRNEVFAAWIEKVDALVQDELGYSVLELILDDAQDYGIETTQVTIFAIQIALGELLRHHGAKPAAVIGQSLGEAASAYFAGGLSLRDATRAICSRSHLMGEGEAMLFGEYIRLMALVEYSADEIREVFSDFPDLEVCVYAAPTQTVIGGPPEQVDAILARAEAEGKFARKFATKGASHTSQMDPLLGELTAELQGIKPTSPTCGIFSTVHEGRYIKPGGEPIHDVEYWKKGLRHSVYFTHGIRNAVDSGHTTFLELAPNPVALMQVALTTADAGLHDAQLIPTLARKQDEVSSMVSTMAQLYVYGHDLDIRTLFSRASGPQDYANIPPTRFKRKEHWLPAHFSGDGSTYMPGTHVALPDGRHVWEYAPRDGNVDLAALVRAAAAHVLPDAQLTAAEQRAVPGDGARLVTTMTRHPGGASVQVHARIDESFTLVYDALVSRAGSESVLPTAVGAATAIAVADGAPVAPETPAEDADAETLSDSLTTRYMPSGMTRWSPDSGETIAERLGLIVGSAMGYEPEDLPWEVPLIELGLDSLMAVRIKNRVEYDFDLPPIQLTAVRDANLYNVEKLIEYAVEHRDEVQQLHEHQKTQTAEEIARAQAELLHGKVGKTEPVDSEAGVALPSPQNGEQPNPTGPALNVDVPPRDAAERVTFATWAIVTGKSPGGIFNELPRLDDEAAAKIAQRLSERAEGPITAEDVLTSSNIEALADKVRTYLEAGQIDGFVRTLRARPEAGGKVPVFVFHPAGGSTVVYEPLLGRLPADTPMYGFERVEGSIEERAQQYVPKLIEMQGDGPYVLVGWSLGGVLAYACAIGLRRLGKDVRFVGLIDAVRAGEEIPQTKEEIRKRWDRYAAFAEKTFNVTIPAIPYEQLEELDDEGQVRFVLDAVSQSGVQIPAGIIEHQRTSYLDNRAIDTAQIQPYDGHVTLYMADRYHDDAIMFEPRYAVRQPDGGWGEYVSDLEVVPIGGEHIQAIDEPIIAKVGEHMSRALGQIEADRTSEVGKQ

From ChEMBL document CHEMBL3988442, “University of Dundee, Small-Polar-MMV Screening Library” (2021).

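Polyketide synthase Pks13, Mycobacterium tuberculosis (UniProt I6X8D2). Enzyme assay of the thioesterase domain of polyketide synthase 13; the read-out is not stated. Compounds at 30 µM. Higher reads as stronger inhibition (inferred from which compounds were picked for retests). Of about 67,000 compounds tested this way, about 300 (0.46%) reached 50% or more in at least one test.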

Results are given as percent effect.
The record does not define 0% and 100%; most values in the screen are far below 50% and negative numbers occur (in some assays of this library far below -100).
This is an unselected part of the compounds tested.

| Compound | Percent Effect |
|---|---|
| `COc1ccc(CN2C[C@@H](F)[C@@H](OCc3nc4cnccc4[nH]3)C2)cn1` | -14.21% |
| `Cc1[nH]/c(=N\C(=O)c2csc(NCC(C)C)n2)sc1C` | -13.06% |
| `Cc1ccc(N2CCC3(CC2)CC(OCC(=O)N(C)C)CO3)nn1` (stereo unspecified) | -17.03% |
| `O=C(c1ccoc1)N1C[C@H]2CC[C@@]3(N=C(c4ccccc4)NC3=O)[C@H]2C1` | 8.621% |
| `CN(Cc1ccsc1)C(=O)CN1CCCC(Cn2cncn2)C1` (stereo unspecified) | -11.94% |
| `Cc1cccc(CN2CCC3(CCN(c4ncccn4)CC3)C2=O)c1` | -30.05% |
| `Cc1ccc(F)c2c1CCCN2C(=O)Cc1c(C)nn(C)c1C` | 3.3% |
| `CN1CC(c2cc(O)nc(NCc3cccc(F)c3)n2)CC1=O` (stereo unspecified) | 3.461% |
| `CCCc1n[nH]c(C2CN(CCNS(=O)(=O)CC)CCO2)n1` (stereo unspecified) | -8.621% |
| `CN1CCCN(C(=O)NCc2ccccc2Cn2cncn2)CC1` | -14.02% |
| `O=C(CN1CCCC1CCCO)NCc1ccccn1` (stereo unspecified) | -17.51% |
| `Cc1nc(C)n(CCNC(=O)C2(C)CC(c3ccccc3)=NO2)n1` (stereo unspecified) | 4.454% |
| `CCN1CCC2(CCN(Cc3nccs3)CC2)C1=O` | 6.622% |
| `CCOCC1CN(C(=O)CS(C)(=O)=O)Cc2cnn(C)c21` (stereo unspecified) | -12.81% |
| `Cc1nc(CNC(=O)CC2C(=O)NCCN2Cc2ccccc2C)n[nH]1` (stereo unspecified) | -18% |
| `COc1ccc(CN2CCC3(CC(C(=O)NCC(C)C)=NO3)C2)cc1` (stereo unspecified) | 6.666% |
| `Cc1nn(C)cc1C1SCC(=O)Nc2c1c(O)nn2C(C)C` (stereo unspecified) | 9.934% |
| `CS(=O)(=O)N1CCC(CSc2ccccc2)C1` (stereo unspecified) | -21.5% |
| `CC(=O)NCc1nc(Cc2cccc(Cl)c2)nn1C1CCN(C)CC1` | 18.08% |
| `CC(C)N1CCN(C(=O)c2ccccc2NCc2cccnc2)CC1` | 3.741% |
| `CCNc1cc2c(nn1)CCN(C(=O)c1ccnc(C)n1)C2` | -5.356% |
| `Cc1ccc(C2CSCCN2C(=O)NCc2cccnc2)cc1` (stereo unspecified) | -16.41% |
| `CCC(OC)C(=O)N1CCc2nc(NC)nc(C(=O)N3CCCC3)c2C1` (stereo unspecified) | -6.427% |
| `Nc1nc(CCC(=O)N2C[C@H](c3ccccc3)[C@@H](N)C2)cs1` | -23.56% |
| `Cc1cc(CN2C[C@@H]3COC[C@@H](C(=O)N4CCCCO4)[C@@H]3C2)no1` | -9.09% |
| `CC(Cn1cccn1)NC(=O)N1CCN(Cc2cccs2)CC1` (stereo unspecified) | -15.8% |
| `CC(C)C1=NOC(c2nc(Cc3ccccc3)no2)C1` (stereo unspecified) | -25.38% |
| `CCCN(c1ccccc1C(=O)O)S(=O)(=O)c1ccc2ccccc2c1` | -11.39% |
| `CN1CCN(C(=O)c2n[nH]c3c2CN(Cc2nccs2)CC3)CC1` | -24.3% |
| `COc1ccc(N2CCN(C(=O)COc3c(C)occc3=O)CC2)cc1` | 4.658% |
| `Cc1ccc(-c2nc(C(=O)N3CCOCC3)cs2)c(C)c1` | -6.576% |
| `Cc1cc(C(N)=O)ccc1NC(=O)c1nc(N2CCCCC2)ncc1Cl` | -14.06% |
| `COCCCNS(=O)(=O)c1ccc(N2CCCCS2(=O)=O)cc1` | -11.1% |
| `CN(C)c1nccc(N(C)Cc2nc3ccccc3n2C)n1` | -15.93% |
| `Cc1ccnc(C2CN(Cc3cnn(-c4ccccc4C(=O)O)c3)C2)n1` | -1.524% |
| `CCCN1CCCn2c(nc(CNC(=O)N3CCCC3)cc2=O)C1` | -29.98% |
| `CCCn1nnc(NCc2cc(Br)cc(Br)c2OC)n1` | 37.46% |
| `CCNC(=O)[C@@H]1C[C@@H](n2cc(CN(CC)CC)nn2)CN1` | -24.47% |
| `Cc1ccc2c(c1)C1(CCN(C(N)=O)CC1)CN2CC1CC1` | 5% |
| `CCC(C)N(Cc1cnc(OC)nc1)Cc1ccsc1` (stereo unspecified) | 0.6809% |
| `CCn1ccnc1CNc1nccc(-c2c(C)nn(C)c2C)n1` | -12.12% |
| `O=C(Nc1cnccn1)[C@H]1CO[C@H]2CCN(c3ncc(F)cn3)C[C@H]2C1` | -40.3% |
| `O=C(O)c1ccccc1CN1CCCC(Cc2ccn[nH]2)C1` (stereo unspecified) | -1.32% |
| `CCN1CCC(c2nc3ccc(NC(C)C)cn3n2)CC1` | -7.922% |
| `CCc1ncc(CN2C[C@@H]3C[C@@H](O)CN3C[C@@H]2Cc2ccccc2)cn1` | -6.817% |
| `Cc1nnc(CN2CCN(Cc3nccn3C)CC2)n1C` | -1.163% |
| `CCOc1cccc(CNC(C)c2ccc(-n3ccnc3)cc2)c1O` (stereo unspecified) | 1.158% |
| `CCS(=O)(=O)c1ccccc1C(=O)NCC1Cc2ccccc2O1` (stereo unspecified) | 0.7703% |
| `CC(=O)N1CCC(C)(c2cc(C(=O)NCC3CC3)nc(C)n2)CC1` | 12.03% |
| `Cc1cccc(N2CCN(C(=O)c3c(C)nn(C)c3C)CC2)c1C` | -4.69% |
| `CSC1(CNC(=O)NC(C)c2ccc(F)cc2)CCOCC1` (stereo unspecified) | -2.747% |
| `CC(=O)N1CCC2(CC1)CN(C(=O)c1ccc3c(c1)OCO3)C2` | -20.87% |
| `N#Cc1ccnc(N2CCC(NCCN3CCCC3)CC2)c1` | -2.835% |
| `COc1cccc(S(=O)(=O)N2CCCCC2CCN2CCCC2=O)c1` (stereo unspecified) | -22.94% |
| `COCCOc1ccc(NC(=O)N(C)Cc2ccsc2)cn1` | -5.105% |
| `CC(C)Nc1ncnc2c1CCN(Cc1ccoc1)CC2` | -14.09% |
| `Fc1ccc(N2CCC3(CC2)CC(OCc2cccnc2)CO3)cc1` (stereo unspecified) | -9.685% |
| `Cc1nc(NC(=O)COCC2CC2)ccc1Br` | 1.91% |
| `Cn1cc(C(=O)NC2CCN(C(=O)NCC3CCSCC3)CC2)cn1` | -7.63% |
| `CCc1[nH]c2c(CNC(=O)C3CCC(=O)NC3)cc(C)cc2c1C` (stereo unspecified) | 0.5606% |
| `CN1C(=O)C2(CCN(CC3CC3)CC2)c2ccccc21` | -22.9% |
| `Cc1cc(C)nc(N2C[C@H]3OC(=O)N(CCc4cccc(Cl)c4)[C@H]3C2)n1` | -42.19% |

Some entries from above, unchanged:

{"compound": "CC(C)N1CCN(C(=O)c2ccccc2NCc2cccnc2)CC1", "Percent Effect": 3.741}
{"compound": "Cc1nc(C)n(CCNC(=O)C2(C)CC(c3ccccc3)=NO2)n1", "stereo": "stereo unspecified", "Percent Effect": 4.454}
{"compound": "Cc1cccc(CN2CCC3(CCN(c4ncccn4)CC3)C2=O)c1", "Percent Effect": -30.05}